Results as given in publication PMC4686813.
These are yes or no findings as the source states them, for the method shown. For some assays here: In cells and extracts the contact can be indirect. Some entries that bind do so weakly or less than the wild type.

By UniProt entry, the sequences of proteins in these tests, tags left out. Where a name states a change or a piece, a line headed by the entry shows the natural chain unless it says otherwise.
UniProt P60467: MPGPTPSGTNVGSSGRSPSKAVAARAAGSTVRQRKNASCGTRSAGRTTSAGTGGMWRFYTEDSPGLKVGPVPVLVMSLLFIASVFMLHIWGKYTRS
UniProt P06625: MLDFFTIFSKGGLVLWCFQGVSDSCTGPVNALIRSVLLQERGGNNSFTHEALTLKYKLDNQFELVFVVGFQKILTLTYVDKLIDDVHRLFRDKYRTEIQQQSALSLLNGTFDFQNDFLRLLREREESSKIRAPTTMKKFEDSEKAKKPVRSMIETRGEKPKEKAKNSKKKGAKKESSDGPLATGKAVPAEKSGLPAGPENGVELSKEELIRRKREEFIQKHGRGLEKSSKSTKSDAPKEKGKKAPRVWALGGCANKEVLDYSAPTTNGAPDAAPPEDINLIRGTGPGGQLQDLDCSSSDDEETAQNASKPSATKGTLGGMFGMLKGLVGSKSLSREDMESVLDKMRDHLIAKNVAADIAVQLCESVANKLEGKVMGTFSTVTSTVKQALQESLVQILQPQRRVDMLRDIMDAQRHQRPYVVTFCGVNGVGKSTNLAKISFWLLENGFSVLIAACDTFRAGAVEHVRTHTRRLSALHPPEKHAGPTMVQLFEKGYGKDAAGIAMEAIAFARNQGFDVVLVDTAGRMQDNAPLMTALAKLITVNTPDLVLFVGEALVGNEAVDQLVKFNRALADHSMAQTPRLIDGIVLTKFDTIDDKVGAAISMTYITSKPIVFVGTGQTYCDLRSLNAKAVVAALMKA

What was measured:
[1] = target: Sec61β (dog (endogenous in canine pancreatic microsomes)) (UniProt P60467); assay: cross-linking; EKRM (100 eq) treated with 40 μM BMH, denatured in SDS, immunoprecipitated with anti-SRα or a non-related antiserum; western blot for Sec61β
[2] = target: Sec61β (dog (endogenous in canine pancreatic microsomes)) (UniProt P60467); assay: cross-linking; proteoliposomes reconstituted with purified Sec61 alone or together with purified endogenous SR and signal peptidase complex, BMH (10 μM); western blot for Sec61β; both purified

binding [1]: binds
binding [2]: binds weakly
Substance: endogenous SRP receptor (SR) (from UniProt P06625 1-638; A0A8I3Q3L6 1-271) (complex)
